Assay results reported in patent US8476434B2, “Protein kinase modulators and method of use” (Amgen Inc., priority 2004, dated 2013).
Some of these results come from one statement about several compounds together.

Amino acid sequences for entries named in this document (tags omitted). Residues count along the entry.
UniProt Q96GD4, whole entry: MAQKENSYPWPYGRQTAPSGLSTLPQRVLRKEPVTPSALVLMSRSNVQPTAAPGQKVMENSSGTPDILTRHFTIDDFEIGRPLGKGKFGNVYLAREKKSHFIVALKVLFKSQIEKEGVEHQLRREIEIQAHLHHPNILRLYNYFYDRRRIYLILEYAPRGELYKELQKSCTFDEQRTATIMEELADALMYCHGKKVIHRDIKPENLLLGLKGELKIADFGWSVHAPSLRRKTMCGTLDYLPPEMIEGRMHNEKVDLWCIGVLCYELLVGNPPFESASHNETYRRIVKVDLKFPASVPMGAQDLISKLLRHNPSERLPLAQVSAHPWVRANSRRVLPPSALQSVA
UniProt Q02763, 23-1124: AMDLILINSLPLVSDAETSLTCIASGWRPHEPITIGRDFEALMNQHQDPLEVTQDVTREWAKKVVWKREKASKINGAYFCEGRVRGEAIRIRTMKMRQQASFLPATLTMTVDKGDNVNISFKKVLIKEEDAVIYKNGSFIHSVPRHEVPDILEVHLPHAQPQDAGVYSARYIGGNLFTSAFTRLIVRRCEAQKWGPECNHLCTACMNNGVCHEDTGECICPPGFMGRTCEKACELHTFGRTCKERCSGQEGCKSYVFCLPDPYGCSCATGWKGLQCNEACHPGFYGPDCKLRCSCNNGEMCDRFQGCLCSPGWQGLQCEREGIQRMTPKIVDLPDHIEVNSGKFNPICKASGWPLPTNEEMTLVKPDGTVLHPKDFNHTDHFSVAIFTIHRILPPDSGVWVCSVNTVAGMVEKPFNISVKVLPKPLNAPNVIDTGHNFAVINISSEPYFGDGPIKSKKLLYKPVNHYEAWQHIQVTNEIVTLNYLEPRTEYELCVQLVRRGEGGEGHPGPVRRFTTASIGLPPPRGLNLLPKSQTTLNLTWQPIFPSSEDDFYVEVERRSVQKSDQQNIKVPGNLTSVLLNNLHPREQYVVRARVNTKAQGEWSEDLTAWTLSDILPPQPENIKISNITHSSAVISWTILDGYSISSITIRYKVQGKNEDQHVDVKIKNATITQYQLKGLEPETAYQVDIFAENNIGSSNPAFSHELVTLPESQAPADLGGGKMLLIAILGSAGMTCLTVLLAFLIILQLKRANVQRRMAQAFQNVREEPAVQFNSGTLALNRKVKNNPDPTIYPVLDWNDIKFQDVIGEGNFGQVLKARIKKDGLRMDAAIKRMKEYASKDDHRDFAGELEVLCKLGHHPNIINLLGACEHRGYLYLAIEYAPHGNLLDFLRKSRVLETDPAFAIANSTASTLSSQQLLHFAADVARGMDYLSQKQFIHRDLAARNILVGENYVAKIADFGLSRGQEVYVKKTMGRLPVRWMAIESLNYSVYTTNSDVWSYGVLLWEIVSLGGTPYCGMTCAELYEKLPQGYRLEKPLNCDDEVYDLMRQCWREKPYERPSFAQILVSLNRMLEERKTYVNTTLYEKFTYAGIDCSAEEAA

Columns and labels:
Assay type in all cases: biochemical
AuroraB FL His = target: T1, AuroraB FL His (Homo sapiens, UniProt Q96GD4); test: AuroraB Homogeneous Time Resolved Fluorescent (HTRF) kinase assay; settings: read-out: activity in the Aurora kinase B HTRF assay
T1 construct: AuroraB FL His; His

AuroraA-TPX2 KD GST = target: T2, AuroraA-TPX2 KD GST (Homo sapiens, UniProt O14965); test: AuroraA-TPX2 Homogeneous Time Resolved Fluorescent (HTRF) kinase assay; settings: read-out: activity in the Aurora kinase A HTRF assay
T2 construct: AuroraA-TPX2 KD GST; GST
T2 sequence (O14965 133-383 limits assumed): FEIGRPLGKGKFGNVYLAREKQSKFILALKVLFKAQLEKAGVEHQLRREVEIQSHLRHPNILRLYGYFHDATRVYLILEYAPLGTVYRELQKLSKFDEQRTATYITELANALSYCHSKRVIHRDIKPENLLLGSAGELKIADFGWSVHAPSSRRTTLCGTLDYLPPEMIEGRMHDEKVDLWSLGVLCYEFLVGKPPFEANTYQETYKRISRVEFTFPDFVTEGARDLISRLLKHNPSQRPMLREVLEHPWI
T2 sequence (Q9ULW0 1-43 partner limits assumed): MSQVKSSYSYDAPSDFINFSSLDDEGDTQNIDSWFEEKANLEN

Tie-2 kinase enzyme = Tie-2 kinase enzyme (Homo sapiens, UniProt Q02763); test: Tie-2 Homogenous Time Resolved Fluorescent (HTRF) kinase assay; settings: read-out: IC50's for the inhibition of Tie-2 as measured by the HTRF assay

Row | Compound | IC50 (AuroraB FL His) [µM] | IC50 (AuroraA-TPX2 KD GST) [µM] | IC50 (Tie-2 kinase enzyme) [µM]
1 | Cc1ccc(C(=O)Nc2cccc(C(F)(F)F)c2)cc1Oc1ncccc1-c1ccncn1 [Example 243, 4-methyl-3-((3-(4-pyrimidinyl)-2-pyridinyl)oxy)-N-(3-(trifluoromethyl)phenyl) benzamide] | < 10 | < 10 | 
2 | O=C(Nc1ccc(C(F)(F)F)cc1)c1cccc(Oc2ncccc2-c2ccncn2)c1 [Example 557, 3-((3-(4-pyrimidinyl)-2-pyridinyl)oxy)-N-(4-(trifluoromethyl)phenyl) benzamide] | < 10 | < 10 | 
3 | O=C(Nc1cccc(Cl)c1)c1cccc(Oc2ncccc2-c2ccncn2)c1 [Example 558, N-(3-chlorophenyl)-3-((3-(4-pyrimidinyl)-2-pyridinyl)oxy)benzamide] | < 10 | < 10 | 
4 | Cc1ccc(C(=O)Nc2ccc(C(F)(F)F)cc2)cc1Oc1ncccc1-c1ccncn1 [Example 566, 4-methyl-3-((3-(4-pyrimidinyl)-2-pyridinyl)oxy)-N-(4-(trifluoromethyl)phenyl) benzamide] | < 10 | < 10 | 
5 | Cc1ccc(C(=O)NCc2cccc(C(F)(F)F)c2)cc1Oc1ncccc1-c1ccncn1 [Example 568, 4-methyl-3-((3-(4-pyrimidinyl)-2-pyridinyl)oxy)-N-((3-(trifluoromethyl)phenyl)methyl)benzamide] | < 10 | < 10 | 
6 | Cc1ccc(C(=O)Nc2ccc3cn[nH]c3c2)cc1Oc1ncccc1-c1ccncn1 [Example 570, N-(1H-indazol-6-yl)-4-methyl-3-((3-(4-pyrimidinyl)-2-pyridinyl)oxy)benzamide] | < 10 | < 10 | 
7 | Cc1ccc(NC(=O)c2cccc(Oc3ncccc3-c3ccncn3)c2)cc1C [Example 577, N-(3,4-dimethylphenyl)-3-((3-(4-pyrimidinyl)-2-pyridinyl)oxy)benzamide] | < 10 | < 10 | 
8 | CNc1nccc(-c2cccnc2Oc2ccc(NC(=O)Nc3cccc(C(F)(F)F)c3)cc2C)n1 [Example 702, N-(3-methyl-4-((3-(2-(methylamino)-4-pyrimidinyl)-2-pyridinyl)oxy)phenyl)-N′-(3-(trifluoromethyl)phenyl)urea] | < 10 | < 10 | 
9 | CNc1nccc(-c2cccnc2Oc2ccc(NC(=O)Nc3ccccc3)cc2C)n1 [Example 776, N-(3-methyl-4-((3-(2-(methylamino)-4-pyrimidinyl)-2-pyridinyl)oxy)phenyl)-N′-phenylurea] | < 10 | < 10 | 
10 | CNc1nccc(-c2cccnc2Oc2ccc(NC(=O)Nc3cccc(C)c3)cc2C)n1 [Example 783, N-(3-methyl-4-((3-(2-(methylamino)-4-pyrimidinyl)-2-pyridinyl)oxy)phenyl)-N′-(3-methylphenyl)urea] | < 10 | < 10 | 
11 | CNc1nccc(-c2cccnc2Oc2ccc(NC(=O)NCc3ccccc3)cc2C)n1 [Example 789, N-(3-methyl-4-((3-(2-(methylamino)-4-pyrimidinyl)-2-pyridinyl)oxy)phenyl)-N′-(phenylmethyl)urea] | < 10 | < 10 | 
12 | CNc1nccc(-c2cccnc2Oc2ccc(NC(=O)c3cccc(Br)c3)cc2)n1 [Example 917, 3-bromo-N-(4-((3-(2-(methylamino)-4-pyrimidinyl)-2-pyridinyl)oxy)phenyl) benzamide] | < 10 | < 10 | 
13 | CNc1ncc(F)c(-c2cccnc2Oc2ccc(NC(=O)Nc3ccccc3)cc2)n1 [Example 930, N-(4-((3-(5-fluoro-2-(methylamino)-4-pyrimidinyl)-2-pyridinyl)oxy)phenyl)-N′-phenylurea] | < 10 | < 10 | 
14 | CNc1nccc(-c2cccnc2Oc2ccc(NC(=O)c3ccc(Oc4ccccc4)cc3)cc2C)n1 [Example 999, N-(3-methyl-4-((3-(2-(methylamino)-4-pyrimidinyl)-2-pyridinyl)oxy)phenyl)-4-(phenyloxy)benzamide] | < 10 | < 10 | 
15 | CNc1nccc(-c2cccnc2Sc2ccc(NC(=O)Nc3ccc(C(C)C)cc3)cc2)n1 [Example 1001, N-(4-((3-(2-(methylamino)-4-pyrimidinyl)-2-pyridinyl)sulfanyl)phenyl)-N′-(4-(1-methylethyl)phenyl)urea] | < 10 | < 10 | 
16 | CNc1nccc(-c2cccnc2Oc2ccc(NC(=O)c3ccc(C4CCCCC4)cc3)cc2C)n1 [Example 1006, 4-cyclohexyl-N-(3-methyl-4-((3-(2-(methylamino)-4-pyrimidinyl)-2-pyridinyl)oxy)phenyl) benzamide] | < 10 | < 10 | 

Row | Compound | IC50 (AuroraB FL His) [µM] | IC50 (AuroraA-TPX2 KD GST) [µM] | IC50 (Tie-2 kinase enzyme) [µM]
17 | CNc1nccc(-c2cccnc2Oc2ccc(NC(=S)Nc3ccccc3)cc2)n1 [Example 1007, N-(4-((3-(2-(methylamino)-4-pyrimidinyl)-2-pyridinyl)oxy)phenyl)-N′-phenylthiourea] | < 10 | < 10 | 
18 | CNc1nccc(-c2cccnc2Oc2ccc(NC(=O)Nc3cc(C)[nH]n3)cc2)n1 [Example 1025, N-(4-((3-(2-(methylamino)-4-pyrimidinyl)-2-pyridinyl)oxy)phenyl)-N′-(5-methyl-1H-pyrazol-3-yl)urea] | < 10 | < 10 | 
19 | CCn1nccc1NC(=O)Nc1ccc(Oc2ncccc2-c2ccnc(NC)n2)cc1 [Example 1026, N-(1-ethyl-1H-pyrazol-5-yl)-N′-(4-((3-(2-(methylamino)-4-pyrimidinyl)-2-pyridinyl)oxy)phenyl)urea] | < 10 | < 10 | 
20 | CCN(CC)CCNC(=O)c1ccc(NC(=O)Nc2ccc(Oc3ncccc3-c3ccnc(NC)n3)cc2)cc1F [Example 1032, N-(2-(diethylamino)ethyl)-2-fluoro-4-((((4-((3-(2-(methylamino)-4-pyrimidinyl)-2-pyridinyl)oxy)phenyl)amino)carbonyl)amino) benzamide] | < 10 | < 10 | 
21 | CNc1nccc(-c2cccnc2[S+]([O-])c2ccc(NC(=O)Nc3ccc(Cl)cc3)cc2)n1 (stereo not shown) [Example 1036, N-(4-chlorophenyl)-N′-(4-((3-(2-(methylamino)-4-pyrimidinyl)-2-pyridinyl)sulfinyl)phenyl) urea] | < 10 | < 10 | 
22 | CNc1ncnc(-c2cccnc2Oc2ccc(NC(=O)Nc3cc(C(F)(F)F)ccc3CN3CCCC3)c3ccccc23)n1 [Example 1113, N-(4-((3-(4-(methylamino)-1,3,5-triazin-2-yl)-2-pyridinyl)oxy)-1-naphthalenyl)-N′-(2-(1-pyrrolidinylmethyl)-5-(trifluoromethyl)phen-yl)urea] | < 10 |  | < 5
23 | CN1CCN(c2ccc(C(=O)Nc3nccc(-c4cccnc4Oc4ccc(NC(=O)Nc5ccc(Cl)cc5)cc4)n3)cc2)CC1 [Example 1138, 1-(4-chlorophenyl)-3-(4-(3-(2-(4-(4-methylpiperazin-1-yl)benzamido)pyrimidin-4-yl)pyridin-2-yloxy)phenyl)urea] | < 10 |  | < 5
24 | CNc1nccc(-c2cccnc2Oc2ccc(NC(=O)c3ccccc3Nc3ccccc3)cc2)n1 [Example 1141, N-(4-(3-(2-(methylamino)pyrimidin-4-yl)pyridin-2-yloxy)phenyl)-2-(phenylamino)benzamide] | < 10 |  | < 5
25 | CNc1nccc(-c2cccnc2Oc2ccc(NC(=O)Nc3ccc(Cl)cc3)cc2F)n1 [Example 1142, 1-(4-chlorophenyl)-3-(3-fluoro-4-(3-(2-(methylamino)pyrimidin-4-yl)pyridin-2-yloxy)phenyl)urea] | < 10 |  | < 5
26 | CNc1nccc(-c2cccnc2Oc2ccc(NC(=O)Nc3ccccc3)cc2F)n1 [Example 1143] | < 10 |  | < 5
27 | CNc1nccc(-c2cccnc2Oc2ccc(NC(=O)c3cccc(C(F)(F)F)c3)cc2F)n1 [Example 1144, N-(3-fluoro-4-(3-(2-(methylamino)pyrimidin-4-yl)pyridin-2-yloxy)phenyl)-3-(trifluoromethyl)benzamide] | < 10 |  | < 5
28 | CNc1nccc(-c2cccnc2Oc2ccc(NC(=O)Nc3ccccc3)cc2OC)n1 [Example 1145, 1-(3-methoxy-4-(3-(2-(methylamino)pyrimidin-4-yl)pyridin-2-yloxy)phenyl)-3-phenylurea] | < 10 |  | < 5
29 | CNc1nccc(-c2cccnc2Oc2ccc(NC(=O)Nc3ccc(Cl)cc3)cc2OC)n1 [Example 1146, 1-(4-chlorophenyl)-3-(3-methoxy-4-(3-(2-(methylamino)pyrimidin-4-yl)pyridin-2-yloxy)phenyl)urea] | < 10 |  | < 5
30 | CNc1nccc(-c2cccnc2Oc2ccc(NC(=O)c3cnoc3-c3ccccc3)cc2)n1 [Example 1147, N-(4-(3-(2-(methylamino)pyrimidin-4-yl)pyridin-2-yloxy)phenyl)-5-phenylisoxazole-4-carboxamide] | < 10 |  | < 5
31 | CNc1nccc(-c2cccnc2Oc2ccc(NC(=O)c3cccc(C(F)(F)F)c3)cc2OC)n1 [Example 1148, N-(3-methoxy-4-(3-(2-(methylamino)pyrimidin-4-yl)pyridin-2-yloxy)phenyl)-3-(trifluoromethyl)benzamide] | < 10 |  | < 5
32 | CN1CCN(c2ccc(Nc3nccc(-c4cccnc4Oc4ccc(C(=O)Nc5cccc(C(F)(F)F)c5)cc4)n3)cc2)CC1 [Example 1169, 4-(3-(2-(4-(4-methylpiperazin-1-yl)phenylamino)pyrimidin-4-yl)pyridin-2-yloxy)-N-(3-(tri-fluoromethyl)phenyl) benzamide] | < 10 |  | < 5
